Data on six molecules can be found in publication PMC9105235.

Results are given in words; binding and its absence hold for the method and conditions named. Binding seen in cells or lysates may run through a third protein. A yes stands for co-enrichment or nearness to the bait. Other partners may have been found.

The target of one test is PrC-CUL3-WT (human) (UniProt Q13618). Kind of test: affinity purification with mass spectrometry; PrC-CUL3-WT or PrC-CUL3-∆9 precipitated with HPC4-sepharose overnight at 4 °C from lysates of tetracycline-induced Flp-In T-REx 293 cells (50 mM HEPES pH 7.5, 150 mM NaCl, 0.5% Nonidet P-40, 2 mM CaCl2); label-free LC-MS/MS, two independent experiments, empty vector as control.

The target in a further test is PrC-CUL3-∆9 (human) (UniProt Q13618). Described as above.

B1: ZBTB17 (protein, UniProt Q13105 1-803)
chain: MDFPQHSQHVLEQLNQQRQLGLLCDCTFVVDGVHFKAHKAVLAACSEYFKMLFVDQKDVVHLDISNAAGLGQVLEFMYTAKLSLSPENVDDVLAVATFLQMQDIITACHALKSLAEPATSPGGNAEALATEGGDKRAKEEKVATSTLSRLEQAGRSTPIGPSRDLKEERGGQAQSAASGAEQTEKADAPREPPPVELKPDPTSGMAAAEAEAALSESSEQEMEVEPARKGEEEQKEQEEQEEEGAGPAEVKEEGSQLENGEAPEENENEESAGTDSGQELGSEARGLRSGTYGDRTESKAYGSVIHKCEDCGKEFTHTGNFKRHIRIHTGEKPFSCRECSKAFSDPAACKAHEKTHSPLKPYGCEECGKSYRLISLLNLHKKRHSGEARYRCEDCGKLFTTSGNLKRHQLVHSGEKPYQCDYCGRSFSDPTSKMRHLETHDTDKEHKCPHCDKKFNQVGNLKAHLKIHIADGPLKCRECGKQFTTSGNLKRHLRIHSGEKPYVCIHCQRQFADPGALQRHVRIHTGEKPCQCVMCGKAFTQASSLIAHVRQHTGEKPYVCERCGKRFVQSSQLANHIRHHDNIRPHKCSVCSKAFVNVGDLSKHIIIHTGEKPYLCDKCGRGFNRVDNLRSHVKTVHQGKAGIKILEPEEGSEVSVVTVDDMVTLATEALAATAVTQLTVVPVGAAVTADETEVLKAEISKAVKQVQEEDPNTHILYACDSCGDKFLDANSLAQHVRIHTAQALVMFQTDADFYQQYGPGGTWPAGQVLQAGELVFRPRDGAEGQPALAETSPTAPECPPPAE
With B1, the binding result with PrC-CUL3-WT (human) and with PrC-CUL3-∆9 (human) was “binds” throughout.

B2: KLHL20 (protein, UniProt Q9Y2M5 1-609)
chain: MEGKPMRRCTNIRPGETGMDVTSRCTLGDPNKLPEGVPQPARMPYISDKHPRQTLEVINLLRKHRELCDVVLVVGAKKIYAHRVILSACSPYFRAMFTGELAESRQTEVVIRDIDERAMELLIDFAYTSQITVEEGNVQTLLPAACLLQLAEIQEACCEFLKRQLDPSNCLGIRAFADTHSCRELLRIADKFTQHNFQEVMESEEFMLLPANQLIDIISSDELNVRSEEQVFNAVMAWVKYSIQERRPQLPQVLQHVRLPLLSPKFLVGTVGSDPLIKSDEECRDLVDEAKNYLLLPQERPLMQGPRTRPRKPIRCGEVLFAVGGWCSGDAISSVERYDPQTNEWRMVASMSKRRCGVGVSVLDDLLYAVGGHDGSSYLNSVERYDPKTNQWSSDVAPTSTCRTSVGVAVLGGFLYAVGGQDGVSCLNIVERYDPKENKWTRVASMSTRRLGVAVAVLGGFLYAVGGSDGTSPLNTVERYNPQENRWHTIAPMGTRRKHLGCAVYQDMIYAVGGRDDTTELSSAERYNPRTNQWSPVVAMTSRRSGVGLAVVNGQLMAVGGFDGTTYLKTIEVFDPDANTWRLYGGMNYRRLGGGVGVIKMTHCESHIW
B2: the binding result in the test with PrC-CUL3-WT (human) and with PrC-CUL3-∆9 (human) was “binds” throughout.

B3: KLHL23 (protein, UniProt Q8NBE8 1-558)
chain: MALKGQEDYIYLFKDSTHPVDFLDAFRTFYLDGLFTDITLQCPSGIIFHCHRAVLAACSNYFKAMFTADMKEKFKNKIKLSGIHHDILEGLVNYAYTSQIEITKRNVQSLLEAADLLQFLSVKKACERFLVRHLDIDNCIGMHSFAEFHVCPELEKESRRILCSKFKEVWQQEEFLEISLEKFLFILSRKNLSVWKEEAIIEPVIKWTAHDVENRIECLYNLLSYINIDIDPVYLKTALGLQRSCLLTENKIRSLIYNALNPMHKEISQRSTATMYIIGGYYWHPLSEVHIWDPLTNVWIQGAEIPDYTRESYGVTCLGPNIYVTGGYRTDNIEALDTVWIYNSESDEWTEGLPMLNARYYHCAVTLGGCVYALGGYRKGAPAEEAEFYDPLKEKWIPIANMIKGVGNATACVLHDVIYVIGGHCGYRGSCTYDKVQSYNSDINEWSLITSSPHPEYGLCSVPFENKLYLVGGQTTITECYDPEQNEWREIAPMMERRMECGAVIMNGCIYVTGGYSYSKGTYLQSIEKYDPDLNKWEIVGNLPSAMRSHGCVCVYNV
As to B3, the binding result with PrC-CUL3-WT (human) and with PrC-CUL3-∆9 (human) was “binds” in each case.

B4: KLHL26 (protein, UniProt Q53HC5 1-615)
chain: MAESGGSSGGAGGGGAFGAGPGPERPNSTADKNGALKCTFSAPSHSTSLLQGLATLRAQGQLLDVVLTINREAFPAHKVVLAACSDYFRAMFTGGMREASQDVIELKGVSARGLRHIIDFAYSAEVTLDLDCVQDVLGAAVFLQMLPVVELCEEFLKAAMSVETCLNIGQMATTFSLASLRESVDAFTFRHFLQIAEEEDFLRLPLERLVFFLQSNRLQSCAEIDLFRAAVRWLQHDPARRPRASHVLCHIRFPLMQSSELVDSVQTLDIMVEDVLCRQYLLEAFNYQVLPFRQHEMQSPRTAVRSDVPSLVTFGGTPYTDSDRSVSSKVYQLPEPGARHFRELTEMEVGCSHTCVAVLDNFVYVAGGQHLQYRSGEGAVDACYRYDPHLNRWLRLQAMQESRIQFQLNVLCGMVYATGGRNRAGSLASVERYCPRRNEWGYACSLKRRTWGHAGAASGGRLYISGGYGISVEDKKALHCYDPVADQWEFKAPMSEPRVLHAMVGAGGRIYALGGRMDHVDRCFDVLAVEYYVPETDQWTSVSPMRAGQSEAGCCLLERKIYIVGGYNWRLNNVTGIVQVYNTDTDEWERDLHFPESFAGIACAPVLLPRAGTRR
B4: the binding result with PrC-CUL3-WT (human) and with PrC-CUL3-∆9 (human) was “binds” throughout.

B5: KLHL8 (protein, UniProt Q9P2G9 1-620)
chain: MASDSMSSKQARNHITKGKRQQQHQQIKNRSSISDGDGEDSFIFEANEAWKDFHGSLLRFYENGELCDVTLKVGSKLISCHKLVLACVIPYFRAMFLSEMAEAKQTLIEIRDFDGDAIEDLVKFVYSSRLTLTVDNVQPLLYAACILQVELVARACCEYMKLHFHPSNCLAVRAFAESHNRIDLMDMADQYACDHFTEVVECEDFVSVSPQHLHKLLSSSDLNIENEKQVYNAAIKWLLANPQHHSKWLDETLAQVRLPLLPVDFLMGVVAKEQIVKQNLKCRDLLDEARNYHLHLSSRAVPDFEYSIRTTPRKHTAGVLFCVGGRGGSGDPFRSIECYSINKNSWFFGPEMNSRRRHVGVISVEGKVYAVGGHDGNEHLGSMEMFDPLTNKWMMKASMNTKRRGIALASLGGPIYAIGGLDDNTCFNDVERYDIESDQWSTVAPMNTPRGGVGSVALVNHVYAVGGNDGMASLSSVERYDPHLDKWIEVKEMGQRRAGNGVSKLHGCLYVVGGFDDNSPLSSVERYDPRSNKWDYVAALTTPRGGVGIATVMGKIFAVGGHNGNAYLNTVEAFDPVLNRWELVGSVSHCRAGAGVAVCSCLTSQIRDVGHGSNNVVDCM
As to B5, the binding entry in the test with PrC-CUL3-WT (human) and with PrC-CUL3-∆9 (human) was “binds” each time.

B6: KLHL42 (protein, UniProt Q9P2K6 1-505)
chain: MSAEEMVQIRLEDRCYPVSKRKLIEQSDYFRALYRSGMREALSQEAGGPEVQQLRGLSAPGLRLVLDFINAGGAREGWLLGPRGEKGGGVDEDEEMDEVSLLSELVEAASFLQVTSLLQLLLSQVRLNNCLEMYRLAQVYGLPDLQEACLRFMVVHFHEVLCKPQFHLLGSPPQAPGDVSLKQRLREARMTGTPVLVALGDFLGGPLAPHPYQGEPPSMLRYEEMTERWFPLANNLPPDLVNVRGYGSAILDNYLFIVGGYRITSQEISAAHSYNPSTNEWLQVASMNQKRSNFKLVAVNSKLYAIGGQAVSNVECYNPEQDAWNFVAPLPNPLAEFSACECKGKIYVIGGYTTRDRNMNILQYCPSSDMWTLFETCDVHIRKQQMVSVEETIYIVGGCLHELGPNRRSSQSEDMLTVQSYNTVTRQWLYLKENTSKSGLNLTCALHNDGIYIMSRDVTLSTSLEHRVFLKYNIFSDSWEAFRRFPAFGHNLLVSSLYLPNKAET
Take B6: the binding result with PrC-CUL3-WT (human) and with PrC-CUL3-∆9 (human) was “binds” in each case.
